Results are given in words; binding and its absence hold for the method and conditions named. In cells and extracts the contact can be indirect. Some binding calls cover weakened binding; strength is not graded here. Tags and fused reporters may be left off the sequences shown.

Sequences of proteins named here, by UniProt entry; tags and fusion partners are left off.
UniProt P01106: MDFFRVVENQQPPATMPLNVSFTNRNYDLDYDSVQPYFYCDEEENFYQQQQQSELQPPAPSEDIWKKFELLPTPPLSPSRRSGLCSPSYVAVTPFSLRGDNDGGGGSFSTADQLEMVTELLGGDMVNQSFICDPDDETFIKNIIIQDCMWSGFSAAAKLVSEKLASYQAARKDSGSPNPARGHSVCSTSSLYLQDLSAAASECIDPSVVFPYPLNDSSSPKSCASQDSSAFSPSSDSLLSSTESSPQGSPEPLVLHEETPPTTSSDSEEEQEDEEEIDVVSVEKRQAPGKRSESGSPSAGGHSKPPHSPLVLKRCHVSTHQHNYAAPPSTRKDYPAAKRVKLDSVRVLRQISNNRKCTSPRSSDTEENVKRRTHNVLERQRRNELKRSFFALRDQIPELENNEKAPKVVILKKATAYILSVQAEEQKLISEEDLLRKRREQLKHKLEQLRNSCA

The test addresses HA-MYC (UniProt P01106). Description: co-IP; HEK293T cells transiently transfected with FLAG-USP13 and HA-MYC; lysis buffer 50 mM Tris pH 8.0, 150 mM NaCl, 1 mM EDTA, 0.1% NP-40; Protein G agarose beads, 1 µg of the specific antibody, 500 µg of lysate; western blot. Background: Immunoblotting shows a protein as a band on a membrane.

B1: FLAG-USP13 (enzyme, UniProt Q92995 1-863)
chain: MQRRGALFGMPGGSGGRKMAAGDIGELLVPHMPTIRVPRSGDRVYKNECAFSYDSPNSEGGLYVCMNTFLAFGREHVERHFRKTGQSVYMHLKRHVREKVRGASGGALPKRRNSKIFLDLDTDDDLNSDDYEYEDEAKLVIFPDHYEIALPNIEELPALVTIACDAVLSSKSPYRKQDPDTWENELPVSKYANNLTQLDNGVRIPPSGWKCARCDLRENLWLNLTDGSVLCGKWFFDSSGGNGHALEHYRDMGYPLAVKLGTITPDGADVYSFQEEEPVLDPHLAKHLAHFGIDMLHMHGTENGLQDNDIKLRVSEWEVIQESGTKLKPMYGPGYTGLKNLGNSCYLSSVMQAIFSIPEFQRAYVGNLPRIFDYSPLDPTQDFNTQMTKLGHGLLSGQYSKPPVKSELIEQVMKEEHKPQQNGISPRMFKAFVSKSHPEFSSNRQQDAQEFFLHLVNLVERNRIGSENPSDVFRFLVEERIQCCQTRKVRYTERVDYLMQLPVAMEAATNKDELIAYELTRREAEANRRPLPELVRAKIPFSACLQAFSEPENVDDFWSSALQAKSAGVKTSRFASFPEYLVVQIKKFTFGLDWVPKKFDVSIDMPDLLDINHLRARGLQPGEEELPDISPPIVIPDDSKDRLMNQLIDPSDIDESSVMQLAEMGFPLEACRKAVYFTGNMGAEVAFNWIIVHMEEPDFAEPLTMPGYGGAASAGASVFGASGLDNQPPEEIVAIITSMGFQRNQAIQALRATNNNLERALDWIFSHPEFEEDSDFVIEMENNANANIISEAKPEGPRVKDGSGTYELFAFISHMGTSTMSGHYICHIKKEGRWVIYNDHKVCASERPPKDLGYMYFYRRIPS
For B1, the binding result was “binds”.

Source of the values: PMC10717271.
